Data from paper PMC8285540.
No constants are given. Whether binding was seen depends on the method and setting. Binding seen in cells or lysates may run through a third protein. Some entries that bind do so weakly or less than the wild type. Sequences can lack the tags named with a protein.

Tests used:
[1] = molecular target: T1, mutant FBXO32 (Gly243Arg) carrying a Flag epitope (human) (UniProt Q969P5); test: co-IP; HEK293 cells co-transfected with Flag-FBXO32 (WT or mutant) and FLAG-tagged ATF2; FBXO32 immunoprecipitated with anti-FBXO32 antibody, blot with anti-ATF2 antibody; control IgG
T1 sequence: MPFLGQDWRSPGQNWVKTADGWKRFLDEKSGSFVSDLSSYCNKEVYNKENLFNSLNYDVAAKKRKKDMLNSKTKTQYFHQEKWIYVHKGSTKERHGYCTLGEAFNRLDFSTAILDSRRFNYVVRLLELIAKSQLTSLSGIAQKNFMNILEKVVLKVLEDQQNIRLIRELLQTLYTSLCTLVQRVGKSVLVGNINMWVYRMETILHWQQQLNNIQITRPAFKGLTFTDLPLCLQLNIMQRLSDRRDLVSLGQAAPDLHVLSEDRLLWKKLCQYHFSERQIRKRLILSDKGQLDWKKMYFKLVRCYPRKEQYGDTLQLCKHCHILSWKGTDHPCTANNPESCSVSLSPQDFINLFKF

[2] = molecular target: T2, wild-type FBXO32 carrying a Flag epitope (FBXO32-FLAG) (human) (UniProt Q969P5); test: as above
T2 sequence: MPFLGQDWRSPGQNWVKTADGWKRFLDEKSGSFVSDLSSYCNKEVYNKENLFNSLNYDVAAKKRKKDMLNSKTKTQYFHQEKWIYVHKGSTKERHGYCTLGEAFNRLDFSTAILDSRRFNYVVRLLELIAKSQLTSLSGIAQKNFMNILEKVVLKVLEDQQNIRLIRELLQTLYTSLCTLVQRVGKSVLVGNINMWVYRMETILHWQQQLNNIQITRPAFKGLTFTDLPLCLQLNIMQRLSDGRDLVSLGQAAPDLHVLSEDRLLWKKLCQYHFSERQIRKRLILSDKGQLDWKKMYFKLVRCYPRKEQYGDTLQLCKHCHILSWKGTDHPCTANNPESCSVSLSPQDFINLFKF

B1: ATF2 carrying a Flag epitope (ATF2-FLAG) (protein, UniProt P15336 1-505)
chain: MKFKLHVNSARQYKDLWNMSDDKPFLCTAPGCGQRFTNEDHLAVHKHKHEMTLKFGPARNDSVIVADQTPTPTRFLKNCEEVGLFNELASPFENEFKKASEDDIKKMPLDLSPLATPIIRSKIEEPSVVETTHQDSPLPHPESTTSDEKEVPLAQTAQPTSAIVRPASLQVPNVLLTSSDSSVIIQQAVPSPTSSTVITQAPSSNRPIVPVPGPFPLLLHLPNGQTMPVAIPASITSSNVHVPAAVPLVRPVTMVPSVPGIPGPSSPQPVQSEAKMRLKAALTQQHPPVTNGDTVKGHGSGLVRTQSEESRPQSLQQPATSTTETPASPAHTTPQTQSTSGRRRRAANEDPDEKRRKFLERNRAAASRCRQKRKVWVQSLEKKAEDLSSLNGQLQSEVTLLRNEVAQLKQLLLAHKDCPVTAMQKKSGYHTADKDDSSEDISVPSSPHTEAIQHSSVSTSNGVSSTSKAEAVATSVLTQMADQSTEPALSQIVMAPSSQSQPSGS
For B1, the binding [1] was “binds” and the binding [2] was “binds”.
